Taken from: PubChem BioAssay AID504791 (Drosophila RNAi Screening Center, 2011)
The screen tested about 23,000 reagents; below is a random part of those with a known target gene and a result. Over the whole deposit, 199 (0.86%) are marked active. 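Plate-scaled ratios behind the calls are not deposited; printed light signals are raw; many rows marked increased or decreased are still called inactive.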 Entries without a mark were called inactive. Not given: the direction of the score.

- Assay: 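Genes of the fly required for silencing by miRNA, siRNA or endo-siRNA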 (primary screen)
- System: Drosophila S2-derived reporter cells
- Knock-down reagent: long dsRNA against Drosophila genes, about 150-250 ng dsRNA per well (siRNA assay); about 80-120 ng (miRNA assay)
- Duration: about 5 days (siRNA assay); about 4 days (miRNA assay)
- Conditions: copper sulfate induction of reporters: 25 µM (siRNA assay); 200 mM stated (miRNA assay), 1-2 days before reading
- Read-out: 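Dual luciferase assay: Renilla to firefly signal ratio in each well, scaled to the mean ratio of its plate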
- Active means: 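First-pass picks had plate-scaled ratios over 1.5 for the siRNA assay, over 1.6 for the miRNA assay, or under 0.6; two distinct dsRNAs had to score alike on retest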

{"predicted target": "CG10029", "DRSC id": "DRSC12498", "stable assay Renilla, run 1 (luminescence)": 7179, "stable assay firefly, run 1 (luminescence)": 5.40e5}
{"predicted target": "CG42246", "DRSC id": "DRSC17520", "stable siRNA reporter change": "reporter ratio raised past the hit cutoff", "stable assay Renilla, run 1 (luminescence)": 8289, "stable assay firefly, run 1 (luminescence)": 3.93e5}
{"predicted target": "Ttd14 (TRPL translocation defect 14)", "DRSC id": "DRSC06632", "stable assay Renilla, run 1 (luminescence)": 9699, "stable assay firefly, run 1 (luminescence)": 2.85e5}
{"predicted target": "Ttd14 (TRPL translocation defect 14)", "DRSC id": "DRSC06942", "stable assay Renilla, run 1 (luminescence)": 5372, "stable assay firefly, run 1 (luminescence)": 2.37e5}
{"predicted target": "PXo (P[[i]]-sensitive XPR1 orthologue)", "DRSC id": "DRSC09734", "stable assay Renilla, run 1 (luminescence)": 7191, "stable assay firefly, run 1 (luminescence)": 4.27e5}
{"predicted target": "bdg (bedraggled)", "DRSC id": "DRSC07136", "stable assay Renilla, run 1 (luminescence)": 8205, "stable assay firefly, run 1 (luminescence)": 2.64e5}
{"predicted target": "CG17580", "DRSC id": "DRSC06683", "stable assay Renilla, run 1 (luminescence)": 5479, "stable assay firefly, run 1 (luminescence)": 3.12e5}
{"predicted target": "CG1463", "DRSC id": "DRSC19603", "stable assay Renilla, run 1 (luminescence)": 7131, "stable assay firefly, run 1 (luminescence)": 2.81e5}
{"predicted target": "OtopLb (Otopetrin-like b)", "DRSC id": "DRSC00594", "stable assay Renilla, run 1 (luminescence)": 22461, "stable assay firefly, run 1 (luminescence)": 3.61e5}
{"predicted target": "bc10", "DRSC id": "DRSC11326", "stable assay Renilla, run 1 (luminescence)": 5279, "stable assay firefly, run 1 (luminescence)": 3.44e5}
{"predicted target": "Nmdmc (NAD-dependent methylenetetrahydrofolate dehydrogenase)", "DRSC id": "DRSC16760", "stable assay Renilla, run 1 (luminescence)": 9757, "stable assay firefly, run 1 (luminescence)": 5.20e5}
{"predicted target": "CG14454", "DRSC id": "DRSC11711", "stable siRNA reporter change": "reporter ratio raised past the hit cutoff", "stable assay Renilla, run 1 (luminescence)": 9821, "stable assay firefly, run 1 (luminescence)": 3.17e5}

2 entries from above, reduced to “stable assay firefly, run 1 (luminescence)”.
Ttd14 (TRPL translocation defect 14) [DRSC06632]: 2.85e5
Ttd14 (TRPL translocation defect 14) [DRSC06942]: 2.37e5

Continued:
{"predicted target": "CG12106", "DRSC id": "DRSC17805", "stable assay Renilla, run 1 (luminescence)": 6631, "stable assay firefly, run 1 (luminescence)": 3.53e5}
{"predicted target": "CG1827", "DRSC id": "DRSC06719", "stable assay Renilla, run 1 (luminescence)": 7758, "stable assay firefly, run 1 (luminescence)": 3.90e5}
{"predicted target": "tex", "DRSC id": "DRSC16517", "stable assay Renilla, run 1 (luminescence)": 8631, "stable assay firefly, run 1 (luminescence)": 4.41e5}
{"predicted target": "CG2921", "DRSC id": "DRSC04324", "miRNA reporter change": "reporter ratio lowered past the hit cutoff", "stable assay Renilla, run 1 (luminescence)": 9530, "stable assay firefly, run 1 (luminescence)": 6.44e5}
{"predicted target": "CenG1A (Centaurin gamma 1A)", "DRSC id": "DRSC02538", "stable assay Renilla, run 1 (luminescence)": 8079, "stable assay firefly, run 1 (luminescence)": 4.16e5}
{"predicted target": "CenG1A (Centaurin gamma 1A)", "DRSC id": "DRSC03505", "stable assay Renilla, run 1 (luminescence)": 7375, "stable assay firefly, run 1 (luminescence)": 4.08e5}
{"predicted target": "CenG1A (Centaurin gamma 1A)", "DRSC id": "DRSC03506", "stable assay Renilla, run 1 (luminescence)": 8046, "stable assay firefly, run 1 (luminescence)": 3.73e5}
{"predicted target": "Lrp4 (LDL receptor related protein 4)", "DRSC id": "DRSC20118", "stable assay Renilla, run 1 (luminescence)": 8093, "stable assay firefly, run 1 (luminescence)": 4.68e5}
{"predicted target": "CG16790", "DRSC id": "DRSC15156", "stable assay Renilla, run 1 (luminescence)": 6732, "stable assay firefly, run 1 (luminescence)": 4.51e5}
{"predicted target": "CG10597", "DRSC id": "DRSC19357", "stable assay Renilla, run 1 (luminescence)": 5610, "stable assay firefly, run 1 (luminescence)": 4.72e5}
{"predicted target": "CG9643", "DRSC id": "DRSC00722", "stable assay Renilla, run 1 (luminescence)": 7747, "stable assay firefly, run 1 (luminescence)": 5.15e5}
{"predicted target": "Trf4-2 (Topoisomerase related function 4-2)", "DRSC id": "DRSC15237", "stable assay Renilla, run 1 (luminescence)": 6922, "stable assay firefly, run 1 (luminescence)": 3.69e5}
{"predicted target": "Takl2 (Tak1-like 2)", "DRSC id": "DRSC15650", "stable assay Renilla, run 1 (luminescence)": 5970, "stable assay firefly, run 1 (luminescence)": 2.74e5}
{"predicted target": "CG1647", "DRSC id": "DRSC15134", "stable assay Renilla, run 1 (luminescence)": 7576, "stable assay firefly, run 1 (luminescence)": 4.12e5}
{"predicted target": "dlp (dally-like)", "DRSC id": "DRSC10281", "stable assay Renilla, run 1 (luminescence)": 6947, "stable assay firefly, run 1 (luminescence)": 2.01e5}
{"predicted target": "dlp (dally-like)", "DRSC id": "DRSC10472", "stable assay Renilla, run 1 (luminescence)": 6772, "stable assay firefly, run 1 (luminescence)": 3.18e5}
